From patent US20070134165A1 (Altana Pharma AG, priority 2004, published 2007)
For at least one compound, name, drawing or mass did not settle the structure.

Columns and labels:
[1] = system: smoking asthmatic subjects; conditions: one year trial; cited from earlier work
[2] = system: patients with asthma; test: Double-blind, randomized, parallel group clinical study, ciclesonide vs budesonide once daily in the evening for 12 weeks; assay type: in vivo; conditions: (ex-)smokers subgroup, after 12 weeks of treatment
Text: Another objective was to provide information on the safety and tolerability of ciclesonide.

CCCC1O[C@@H]2C[C@H]3[C@@H]4CCC5=CC(=O)C=C[C@]5(C)[C@H]4[C@@H](O)C[C@]3(C)[C@]2(C(=O)CO)O1 (some centres unmarked) [budesonide]
response to inhaled steroids [1]: considerable resistance | change in FEV1, subgroup analysis [2]: In none of the corresponding subgroup within the budesonide group statistically significant changes
